Binding data for 1 substance are collected here from publication PMC4682977.

No constants are given. Whether binding was seen depends on the method and setting. In cells and extracts the contact can be indirect. A result given as binding can be weak or reduced; the word gives no strength. Where a sequence is shown, tags or fusion partners need not be part of it.

The target of the experiment is T1, C-terminally Flag-tagged TβRI (TGF-β type I receptor) (UniProt P36897).
T1 sequence: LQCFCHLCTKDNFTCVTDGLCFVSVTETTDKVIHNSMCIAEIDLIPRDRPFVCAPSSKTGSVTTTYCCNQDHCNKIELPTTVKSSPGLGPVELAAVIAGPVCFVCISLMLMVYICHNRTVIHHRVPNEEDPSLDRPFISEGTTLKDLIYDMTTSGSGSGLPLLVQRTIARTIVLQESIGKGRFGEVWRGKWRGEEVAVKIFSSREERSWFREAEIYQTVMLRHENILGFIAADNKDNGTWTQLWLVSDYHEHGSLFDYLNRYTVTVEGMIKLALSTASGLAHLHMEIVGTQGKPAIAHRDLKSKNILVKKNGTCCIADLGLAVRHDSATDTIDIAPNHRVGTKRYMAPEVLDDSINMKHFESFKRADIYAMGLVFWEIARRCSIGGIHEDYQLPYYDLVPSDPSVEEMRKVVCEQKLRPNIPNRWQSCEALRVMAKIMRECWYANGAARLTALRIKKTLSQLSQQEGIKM
The experiment in a line: co-IP; 293T cells coexpressing TβRII and Flag-tagged TβRI with the partner, with or without increasing amounts of p52ShcA-HA or Smad3-myc plasmid, TGF-β-treated; anti-Flag immunoprecipitation of TβRI, immunoblotting of associated proteins; lysis buffer 25 mM Tris-HCl pH 7.5, 150 mM NaCl, 0.7% Triton X-100, 10% glycerol. For orientation: A western blot detects proteins with antibodies after separation by electrophoresis.

On to C-terminal Myc-Smad3D407E, for which the binding result was “binds”.
